PubChem BioAssay AID1224829 | NIAID, 2016
Shown is one part, drawn at random, of about 3,800 deposited reagents. 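Calls cover raised and lowered translocation; gene median uses one vendor's three siRNAs; qiagen siRNAs acted more weakly than ambion siRNAs.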 The numbers tell different reagents against one gene apart.

Test: 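Follow-up of TLR4-NF-kappaB regulators using six separate siRNAs for each gene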 (follow-up of hits)
Cells: mouse RAW264.7 G9 macrophage reporter cells
Reagents: single siRNA against mouse genes, 100 nM
Timing: 2 days of siRNA knock-down, then 40 min of LPS before fixing
Treatment: LPS (Salmonella minnesota R595) at 10 ng/ml
Measured: 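High-content images after 40 min LPS exposure; GFP-p65 nucleus to surrounding ring signal ratio, normalised to plate median and non-targeting control wells, expressed as z-score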
Scale: p65 translocation z-score and gene median z-score, per vendor: higher = more nuclear NF-kappaB p65 after LPS
Hit rule: 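An siRNA is called active when the mean z-score of its two replicates is above 2 or below -2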
Meaning of the calls: active = changed p65 translocation (either direction); inactive = no clear change

no.	target gene	reagent no.	siRNA vendor or control pool	p65 translocation z-score, replicate mean	p65 translocation z-score, replicate 1	p65 translocation z-score, replicate 2	gene median z-score, per vendor	outcome
1	Calm4	1	ambion single siRNA	-0.411	-2.15	1.33	-1.14	inactive
2	Calm4	2	ambion single siRNA	-0.0823	-0.0823		-1.14	inactive
3	Calm4	3	ambion single siRNA	-1.43	-1.73	-1.14	-1.14	inactive
4	Calm4	4	qiagen single siRNA	3.34	3.05	3.63	0.25	active
5	Calm4	5	qiagen single siRNA	0.25	0.263	0.237	0.25	inactive
6	Calm4	6	qiagen single siRNA	-1.38	-2	-0.763	0.25	inactive
7	Batf3	1	ambion single siRNA	0.561	-1.04	2.16	-3.67	inactive
8	Batf3	2	ambion single siRNA	-3.8	-4.1	-3.5	-3.67	active
9	Batf3	3	ambion single siRNA	-3.9	-3.84	-3.96	-3.67	active
10	Batf3	4	qiagen single siRNA	-0.11	-0.96	0.74	-0.3	inactive
11	Batf3	5	qiagen single siRNA	0.502	0.36	0.643	-0.3	inactive
12	Batf3	6	qiagen single siRNA	-2.01	-3.03	-0.995	-0.3	active
13	Pdcl3	1	ambion single siRNA	1.58	2.5	0.652	0.878	inactive
14	Pdcl3	2	ambion single siRNA	-0.0683	-1.24	1.1	0.878	inactive
15	Pdcl3	3	ambion single siRNA				0.878	inactive
16	Pdcl3	4	qiagen single siRNA	0.419	0.483	0.355	0.531	inactive
17	Pdcl3	5	qiagen single siRNA	1.21	0.395	2.02	0.531	inactive
18	Pdcl3	6	qiagen single siRNA	1.34	0.578	2.11	0.531	inactive
19	Tpp1	1	ambion single siRNA	1.64	1.95	1.33	0.638	inactive
20	Tpp1	2	ambion single siRNA	0.783	1.62	-0.0559	0.638	inactive
21	Tpp1	3	ambion single siRNA	-2.54	-3.13	-1.95	0.638	active
22	Cct7	1	ambion single siRNA	-7.08	-7.11	-7.05	-4.17	active
23	Cct7	2	ambion single siRNA	-4.17	-4.17		-4.17	active
24	Cct7	3	ambion single siRNA	-0.328	-0.97	0.314	-4.17	inactive
25	Cct7	4	qiagen single siRNA	-0.429	-0.432	-0.427	-0.429	inactive
26	Cct7	5	qiagen single siRNA	-1.29	-1.3	-1.28	-0.429	inactive
27	Cct7	6	qiagen single siRNA	0.415	-0.103	0.932	-0.429	inactive
28	Klra22	1	ambion single siRNA	-2.56	-1.84	-3.28	-2.16	active
29	Klra22	2	ambion single siRNA	-2.03	-2.42	-1.64	-2.16	active
30	Klra22	3	ambion single siRNA	-2.8	-3.7	-1.91	-2.16	active
31	Klra22	4	qiagen single siRNA	5.41	2.6	8.23	-0.989	active
32	Klra22	5	qiagen single siRNA	-1.7	-0.854	-2.54	-0.989	inactive
33	Klra22	6	qiagen single siRNA	-1.29	-1.12	-1.45	-0.989	inactive
34	Cebpd	1	ambion single siRNA	-1.91	-2.01	-1.81	-1.68	inactive
35	Cebpd	2	ambion single siRNA	0.871	0.124	1.62	-1.68	inactive
36	Cebpd	3	ambion single siRNA	-2.04	-2.52	-1.55	-1.68	active
37	Cebpd	4	qiagen single siRNA	0.29	-0.568	1.15	-0.568	inactive
38	Cebpd	5	qiagen single siRNA	-1.42	-0.424	-2.41	-0.568	inactive
39	Cebpd	6	qiagen single siRNA	-1.52	-1.52		-0.568	inactive
40	Twist1	1	ambion single siRNA	-0.339	-0.322	-0.356	-0.932	inactive
41	Twist1	2	ambion single siRNA	-1.03	-1.02	-1.05	-0.932	inactive
42	Twist1	3	ambion single siRNA	-0.932	-0.938	-0.925	-0.932	inactive
43	Twist1	4	qiagen single siRNA	1.68	1.41	1.95	-1.01	inactive
44	Twist1	5	qiagen single siRNA	-1.01	-1.61	-0.405	-1.01	inactive
45	Twist1	6	qiagen single siRNA	-2.91	-2.49	-3.33	-1.01	active
46	Or2t47	1	ambion single siRNA	0.329	-0.157	0.815	-0.0564	inactive
47	Or2t47	2	ambion single siRNA	0.0741	0.143	0.00552	-0.0564	inactive
48	Or2t47	3	ambion single siRNA	-0.367	-0.118	-0.615	-0.0564	inactive
49	Or2t47	4	qiagen single siRNA	-0.515	-1.01	-0.0164	-1.57	inactive
50	Or2t47	5	qiagen single siRNA	-5.43	-5.43		-1.57	active
51	Or2t47	6	qiagen single siRNA	-3.63	-1.57	-5.68	-1.57	active
52	Ammecr1l	1	ambion single siRNA	-1.71	-0.568	-2.84	-2.9	inactive
53	Ammecr1l	2	ambion single siRNA	-3.59	-3.34	-3.83	-2.9	active
54	Ammecr1l	3	ambion single siRNA	-2.81	-2.95	-2.67	-2.9	active
55	Ammecr1l	4	qiagen single siRNA	0.745	0.77	0.72	0.179	inactive
56	Ammecr1l	5	qiagen single siRNA	-0.767	-1.29	-0.249	0.179	inactive
57	Ammecr1l	6	qiagen single siRNA	-0.398	-1.4	0.608	0.179	inactive
58	Zscan21	1	ambion single siRNA	-5.1	-5.66	-4.54	-4.4	active
59	Zscan21	2	ambion single siRNA	-4.64	-4.26	-5.02	-4.4	active
60	Zscan21	3	ambion single siRNA	-3.06	-3.27	-2.85	-4.4	active
61	Zscan21	4	qiagen single siRNA	2.23	1.97	2.49	-0.974	active
62	Zscan21	5	qiagen single siRNA	-0.974	-0.924	-1.02	-0.974	inactive
63	Zscan21	6	qiagen single siRNA	-3.21	-4.38	-2.05	-0.974	active
64	Tyw1	1	ambion single siRNA	-0.249	-0.485	-0.0124	-0.249	inactive
65	Tyw1	2	ambion single siRNA	0.492	-0.00788	0.992	-0.249	inactive
66	Tyw1	3	ambion single siRNA	-3.45	-3.25	-3.65	-0.249	active
67	Tyw1	4	qiagen single siRNA	1.55	0.596	2.51	0.323	inactive
68	Tyw1	5	qiagen single siRNA	0.323	0.319	0.326	0.323	inactive
69	Tyw1	6	qiagen single siRNA	-3.39	-2.29	-4.49	0.323	active
